Experimental data reported in article PMC11982200.
No constants are given. Whether binding was seen depends on the method and setting. Binding seen in cells or lysates may run through a third protein. Some results given as binding are weak or reduced against the parent protein; the word gives no strength.

Protein sequences, listed by entry. Tags and fused reporters are not part of them. Lines headed by an entry give the natural chain unless they say otherwise; changes in a name come on top. Chains listed by the source or under a name are the forms on record and can include a tag or linker. Residues count along the entry.
kidney-type glutaminase (GLS1) isoform KGA, endogenous (human (endogenous in HB cell lines HepG2/HUH6)) (O94925, residues 55-669): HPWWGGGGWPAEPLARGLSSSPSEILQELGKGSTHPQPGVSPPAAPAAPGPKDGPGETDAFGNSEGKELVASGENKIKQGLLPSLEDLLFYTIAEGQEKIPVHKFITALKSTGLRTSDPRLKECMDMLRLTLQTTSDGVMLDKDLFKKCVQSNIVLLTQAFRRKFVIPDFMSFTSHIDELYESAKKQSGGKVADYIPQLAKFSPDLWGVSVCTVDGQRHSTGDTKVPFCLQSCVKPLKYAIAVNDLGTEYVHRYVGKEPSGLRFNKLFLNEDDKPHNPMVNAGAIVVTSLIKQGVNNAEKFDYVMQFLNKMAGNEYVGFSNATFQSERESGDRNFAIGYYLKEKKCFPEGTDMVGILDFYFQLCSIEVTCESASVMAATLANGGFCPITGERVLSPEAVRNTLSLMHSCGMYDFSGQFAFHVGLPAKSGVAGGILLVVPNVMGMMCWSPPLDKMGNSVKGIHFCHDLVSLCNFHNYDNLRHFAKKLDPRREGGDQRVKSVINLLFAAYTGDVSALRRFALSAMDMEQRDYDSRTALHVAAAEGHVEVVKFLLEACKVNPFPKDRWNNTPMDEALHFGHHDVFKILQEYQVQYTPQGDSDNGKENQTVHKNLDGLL
glutaminase C (GAC), splice variant of GLS1, endogenous (human (endogenous in HB cell lines HepG2/HUH6)) (O94925, form named): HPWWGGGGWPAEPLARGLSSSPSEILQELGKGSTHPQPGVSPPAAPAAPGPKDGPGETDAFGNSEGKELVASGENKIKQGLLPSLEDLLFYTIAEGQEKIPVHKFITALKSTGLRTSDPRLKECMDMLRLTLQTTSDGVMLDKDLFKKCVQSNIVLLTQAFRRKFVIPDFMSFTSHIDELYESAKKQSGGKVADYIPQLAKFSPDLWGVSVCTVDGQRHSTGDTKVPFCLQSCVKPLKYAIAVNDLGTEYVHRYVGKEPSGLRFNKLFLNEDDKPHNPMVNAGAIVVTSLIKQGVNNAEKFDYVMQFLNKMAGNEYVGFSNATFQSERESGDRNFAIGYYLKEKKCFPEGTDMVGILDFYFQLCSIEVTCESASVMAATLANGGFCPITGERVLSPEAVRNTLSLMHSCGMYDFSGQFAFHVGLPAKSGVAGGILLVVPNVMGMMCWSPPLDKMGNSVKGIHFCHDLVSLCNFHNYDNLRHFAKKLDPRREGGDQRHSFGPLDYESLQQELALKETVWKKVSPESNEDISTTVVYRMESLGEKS

T1: OGT, endogenous (human (endogenous in HB cell lines HepG2/HUH6)) (UniProt O15294)
T1 sequence: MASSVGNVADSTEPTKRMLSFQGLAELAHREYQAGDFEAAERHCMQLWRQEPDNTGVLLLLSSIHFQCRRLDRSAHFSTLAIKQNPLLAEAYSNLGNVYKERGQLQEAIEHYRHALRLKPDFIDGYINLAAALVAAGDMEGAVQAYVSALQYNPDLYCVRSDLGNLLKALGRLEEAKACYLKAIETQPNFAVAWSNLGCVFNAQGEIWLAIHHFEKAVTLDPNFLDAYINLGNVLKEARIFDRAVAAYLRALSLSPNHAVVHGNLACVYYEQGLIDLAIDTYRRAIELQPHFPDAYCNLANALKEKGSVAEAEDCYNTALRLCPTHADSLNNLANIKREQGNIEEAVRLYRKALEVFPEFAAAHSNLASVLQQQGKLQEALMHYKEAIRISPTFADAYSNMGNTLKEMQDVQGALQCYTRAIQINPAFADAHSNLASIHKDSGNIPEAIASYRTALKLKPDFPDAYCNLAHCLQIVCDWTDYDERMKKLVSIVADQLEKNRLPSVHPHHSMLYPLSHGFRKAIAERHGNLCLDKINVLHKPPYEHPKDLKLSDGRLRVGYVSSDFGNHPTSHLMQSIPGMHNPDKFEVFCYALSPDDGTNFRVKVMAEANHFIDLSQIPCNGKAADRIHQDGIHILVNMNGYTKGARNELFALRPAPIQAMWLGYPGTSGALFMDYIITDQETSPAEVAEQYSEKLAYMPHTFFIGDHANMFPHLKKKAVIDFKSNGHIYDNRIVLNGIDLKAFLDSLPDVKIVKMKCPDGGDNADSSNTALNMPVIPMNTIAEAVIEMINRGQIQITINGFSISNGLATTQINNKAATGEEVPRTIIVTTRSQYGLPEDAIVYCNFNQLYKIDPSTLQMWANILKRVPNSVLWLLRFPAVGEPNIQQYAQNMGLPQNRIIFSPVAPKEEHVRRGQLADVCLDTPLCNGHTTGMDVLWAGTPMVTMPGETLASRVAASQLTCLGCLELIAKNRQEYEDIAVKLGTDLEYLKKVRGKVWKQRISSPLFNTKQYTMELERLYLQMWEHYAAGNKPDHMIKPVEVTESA


Key:
Assay in all cases: co-IP; endogenous proteins in HB cell lysate (Western/IP lysis buffer); specific primary antibody (anti-KGA, anti-GAC or anti-OGT) or IgG control with Protein A/G PLUS-Agarose overnight at 4 °C, five washes, Western blot
[1] = target: T1, OGT, endogenous (human (endogenous in HB cell lines HepG2/HUH6))
[2] = target: glutaminase C (GAC), splice variant of GLS1, endogenous (human (endogenous in HB cell lines HepG2/HUH6)) (UniProt O94925)
[3] = target: kidney-type glutaminase (GLS1) isoform KGA, endogenous (human (endogenous in HB cell lines HepG2/HUH6)) (UniProt O94925)

binding [1]	binding [2]	binding [3]	Molecule
binds	–	–	kidney-type glutaminase (GLS1) isoform KGA, endogenous (from UniProt O94925 55-669) (enzyme)
–	no binding	binds	OGT, endogenous (enzyme, UniProt O15294 1-1046) MASSVGNVADSTEPTKRMLSFQGLAELAHREYQAGDFEAAERHCMQLWRQEPDNTGVLLLLSSIHFQCRRLDRSAHFSTLAIKQNPLLAEAYSNLGNVYKERGQLQEAIEHYRHALRLKPDFIDGYINLAAALVAAGDMEGAVQAYVSALQYNPDLYCVRSDLGNLLKALGRLEEAKACYLKAIETQPNFAVAWSNLGCVFNAQGEIWLAIHHFEKAVTLDPNFLDAYINLGNVLKEARIFDRAVAAYLRALSLSPNHAVVHGNLACVYYEQGLIDLAIDTYRRAIELQPHFPDAYCNLANALKEKGSVAEAEDCYNTALRLCPTHADSLNNLANIKREQGNIEEAVRLYRKALEVFPEFAAAHSNLASVLQQQGKLQEALMHYKEAIRISPTFADAYSNMGNTLKEMQDVQGALQCYTRAIQINPAFADAHSNLASIHKDSGNIPEAIASYRTALKLKPDFPDAYCNLAHCLQIVCDWTDYDERMKKLVSIVADQLEKNRLPSVHPHHSMLYPLSHGFRKAIAERHGNLCLDKINVLHKPPYEHPKDLKLSDGRLRVGYVSSDFGNHPTSHLMQSIPGMHNPDKFEVFCYALSPDDGTNFRVKVMAEANHFIDLSQIPCNGKAADRIHQDGIHILVNMNGYTKGARNELFALRPAPIQAMWLGYPGTSGALFMDYIITDQETSPAEVAEQYSEKLAYMPHTFFIGDHANMFPHLKKKAVIDFKSNGHIYDNRIVLNGIDLKAFLDSLPDVKIVKMKCPDGGDNADSSNTALNMPVIPMNTIAEAVIEMINRGQIQITINGFSISNGLATTQINNKAATGEEVPRTIIVTTRSQYGLPEDAIVYCNFNQLYKIDPSTLQMWANILKRVPNSVLWLLRFPAVGEPNIQQYAQNMGLPQNRIIFSPVAPKEEHVRRGQLADVCLDTPLCNGHTTGMDVLWAGTPMVTMPGETLASRVAASQLTCLGCLELIAKNRQEYEDIAVKLGTDLEYLKKVRGKVWKQRISSPLFNTKQYTMELERLYLQMWEHYAAGNKPDHMIKPVEVTESA
